In the supplement of paper PMC9454738 one finds cell viability data, which are given here for seven compounds.

SMILES strings stand for the structures. The list shows a part of the results. This data set is noisy: repeats of one test often differ as much as different tests do.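 Assays used MDA-MB-231 triple-negative breast cancer cells and their brain-metastatic line MDA-MB-231BRM, stably carrying empty vector, full-length GLI1 or truncated tGLI1. After 48 h, viability was read with CellTiter-Blue and normalized to 1% DMSO vehicle. tGLI1 selectivity meant viability fell 20% more in tGLI1 cells than in vector and GLI1 cells.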

Some test systems named below: MDA-MB-231 GLI1; MDA-MB-231 Vector; MDA-MB-231 tGLI1; MDA-MB-231BRM GLI1; MDA-MB-231BRM Vector; MDA-MB-231BRM tGLI1.
Experiment in all cases: cell viability relative to vehicle (DMSO) control (fraction); higher = more viable cells (less growth inhibition)
Holding throughout (settings): treatment time 48 h

In the case of `Nc1ncnc2c1c(-c1cccc(OCc3ccccc3)c1)cn2C1CC(CN2CCCC2)C1` (stereo unspecified), the cell viability is 1.27 in the assay with MDA-MB-231 GLI1 (0.05 µM); 1.5 with MDA-MB-231 GLI1 (0.5 µM); -0.062 in the assay with MDA-MB-231 GLI1 (5 µM); 1.42 with MDA-MB-231 Vector (0.05 µM); 1.1 in the assay on MDA-MB-231 Vector (0.5 µM); 0.318 in the assay with MDA-MB-231 Vector (5 µM). Moreover, the cell viability was 1.27 in the assay with MDA-MB-231 tGLI1 (0.05 µM); 1.37 with MDA-MB-231 tGLI1 (0.5 µM); -0.0636 with MDA-MB-231 tGLI1 (5 µM); 0.932 in the assay with MDA-MB-231BRM GLI1 (0.05 µM); 0.996 in the assay with MDA-MB-231BRM GLI1 (0.5 µM); 0.966 with MDA-MB-231BRM GLI1 (5 µM). Also, the cell viability with MDA-MB-231BRM Vector (0.05 µM) is 0.986; in the assay on MDA-MB-231BRM Vector (0.5 µM), 0.931; with MDA-MB-231BRM Vector (5 µM) it was 0.986; in the assay on MDA-MB-231BRM tGLI1 (0.05 µM) it was 0.903; in the assay with MDA-MB-231BRM tGLI1 (0.5 µM), 0.938; with MDA-MB-231BRM tGLI1 (5 µM), 0.84.

Consider `Cn1nnc2c(C(N)=O)ncn2c1=O` [Methazolastone], for which the cell viability is 1.17 in the assay with MDA-MB-231 GLI1 (0.05 µM); 1.04 in the assay on MDA-MB-231 GLI1 (0.5 µM); 1.03 with MDA-MB-231 GLI1 (5 µM); 1.08 in the assay on MDA-MB-231 Vector (0.05 µM); 1 with MDA-MB-231 Vector (0.5 µM); 1.06 in the assay with MDA-MB-231 Vector (5 µM). The cell viability was 0.965 in the assay with MDA-MB-231 tGLI1 (0.05 µM); 1.03 with MDA-MB-231 tGLI1 (0.5 µM); 1.04 in the assay on MDA-MB-231 tGLI1 (5 µM); 0.968 with MDA-MB-231BRM GLI1 (0.05 µM); 1.04 in the assay on MDA-MB-231BRM GLI1 (0.5 µM); 1.04 in the assay with MDA-MB-231BRM GLI1 (5 µM). Moreover, the cell viability in the assay with MDA-MB-231BRM Vector (0.05 µM) was 1.02; in the assay with MDA-MB-231BRM Vector (0.5 µM), 1.01; in the assay with MDA-MB-231BRM Vector (5 µM) it was 1.12; in the assay on MDA-MB-231BRM tGLI1 (0.05 µM), 1.01; in the assay with MDA-MB-231BRM tGLI1 (0.5 µM) it was 1.03; in the assay with MDA-MB-231BRM tGLI1 (5 µM) it was 1.1.

Take `CCc1cncnc1N1CCN(Cc2nc3ccc(C(F)(F)F)cc3[nH]2)CC1`: the cell viability in the assay on MDA-MB-231 GLI1 (0.05 µM) worked out at 1.39; with MDA-MB-231 GLI1 (0.5 µM), 1.44; with MDA-MB-231 GLI1 (5 µM), 1.79; in the assay with MDA-MB-231 Vector (0.05 µM), 0.891; in the assay on MDA-MB-231 Vector (0.5 µM), 1.38; in the assay with MDA-MB-231 Vector (5 µM) it was 1.42. In addition, the cell viability in the assay on MDA-MB-231 tGLI1 (0.05 µM) amounted to 1.14; in the assay with MDA-MB-231 tGLI1 (0.5 µM), 1.42; with MDA-MB-231 tGLI1 (5 µM), 1.41; in the assay with MDA-MB-231BRM GLI1 (0.05 µM) it was 1.08; in the assay on MDA-MB-231BRM GLI1 (0.5 µM), 1.15; in the assay with MDA-MB-231BRM GLI1 (5 µM), 0.928. In addition, the cell viability in the assay with MDA-MB-231BRM Vector (0.05 µM) came to 1.1; with MDA-MB-231BRM Vector (0.5 µM), 1.05; in the assay with MDA-MB-231BRM Vector (5 µM), 0.972; in the assay with MDA-MB-231BRM tGLI1 (0.05 µM), 0.925; in the assay with MDA-MB-231BRM tGLI1 (0.5 µM), 1.09; in the assay with MDA-MB-231BRM tGLI1 (5 µM), 0.858.

In the case of `C=CC(=O)N1CCC[C@@H](n2nc(-c3ccc(Oc4ccccc4)cc3)c3c(N)ncnc32)C1`, the cell viability in the assay with MDA-MB-231 GLI1 (0.05 µM) came to 1.3; in the assay on MDA-MB-231 GLI1 (0.5 µM), 1.34; in the assay with MDA-MB-231 GLI1 (5 µM) it was 0.795; in the assay on MDA-MB-231 Vector (0.05 µM), 1.22; in the assay with MDA-MB-231 Vector (0.5 µM), 1.29; in the assay with MDA-MB-231 Vector (5 µM), 1.31. Besides, the cell viability turned out to be 1.55 with MDA-MB-231 tGLI1 (0.05 µM); 1.08 in the assay with MDA-MB-231 tGLI1 (0.5 µM); 0.896 in the assay on MDA-MB-231 tGLI1 (5 µM); 0.986 with MDA-MB-231BRM GLI1 (0.05 µM); 0.963 with MDA-MB-231BRM GLI1 (0.5 µM); 0.812 in the assay on MDA-MB-231BRM GLI1 (5 µM). The cell viability with MDA-MB-231BRM Vector (0.05 µM) was 1.05; with MDA-MB-231BRM Vector (0.5 µM), 1.1; in the assay with MDA-MB-231BRM Vector (5 µM), 0.81; in the assay with MDA-MB-231BRM tGLI1 (0.05 µM), 1.07; in the assay with MDA-MB-231BRM tGLI1 (0.5 µM), 1.06; in the assay with MDA-MB-231BRM tGLI1 (5 µM) it was 0.758.

As to `CC1(COc2ccc3c(c2)ncn3-c2ccc3cccc(N4CCC(N)CC4)c3n2)COC1`, the cell viability in the assay on MDA-MB-231 GLI1 (0.05 µM) was found to be 1.11; with MDA-MB-231 GLI1 (0.5 µM) it was 0.963; in the assay on MDA-MB-231 GLI1 (5 µM), 0.111; with MDA-MB-231 Vector (0.05 µM), 0.93; in the assay with MDA-MB-231 Vector (0.5 µM) it was 0.913; with MDA-MB-231 Vector (5 µM), 0.277. The cell viability in the assay with MDA-MB-231 tGLI1 (0.05 µM) came out at 1.23; with MDA-MB-231 tGLI1 (0.5 µM) it was 0.824; with MDA-MB-231 tGLI1 (5 µM) it was 0.169; in the assay with MDA-MB-231BRM GLI1 (0.05 µM), 1.04; in the assay on MDA-MB-231BRM GLI1 (0.5 µM), 1.15; in the assay on MDA-MB-231BRM GLI1 (5 µM), 0.985. The cell viability was 1.1 in the assay on MDA-MB-231BRM Vector (0.05 µM); 1.11 in the assay with MDA-MB-231BRM Vector (0.5 µM); 0.971 in the assay with MDA-MB-231BRM Vector (5 µM); 1.05 in the assay with MDA-MB-231BRM tGLI1 (0.05 µM); 1.24 in the assay on MDA-MB-231BRM tGLI1 (0.5 µM); 0.902 in the assay on MDA-MB-231BRM tGLI1 (5 µM).

Turning to `COc1cc(Nc2ncc3c(n2)-c2ccc(Cl)cc2C(c2c(F)cccc2OC)=NC3)ccc1C(=O)O` [Alisertib (MLN8237)], the cell viability in the assay on MDA-MB-231 GLI1 (0.05 µM) is 0.918; in the assay with MDA-MB-231 GLI1 (0.5 µM) it was 1.19; in the assay on MDA-MB-231 GLI1 (5 µM), 0.819; in the assay with MDA-MB-231 Vector (0.05 µM), 0.996; with MDA-MB-231 Vector (0.5 µM) it was 0.88; with MDA-MB-231 Vector (5 µM), 0.691. The cell viability in the assay on MDA-MB-231 tGLI1 (0.05 µM) was determined as 0.773; in the assay on MDA-MB-231 tGLI1 (0.5 µM) it was 0.995; with MDA-MB-231 tGLI1 (5 µM), 0.458; in the assay on MDA-MB-231BRM GLI1 (0.05 µM), 0.994; in the assay on MDA-MB-231BRM GLI1 (0.5 µM), 0.975; in the assay on MDA-MB-231BRM GLI1 (5 µM), 0.851. In addition, the cell viability in the assay with MDA-MB-231BRM Vector (0.05 µM) amounted to 1.01; in the assay with MDA-MB-231BRM Vector (0.5 µM) it was 0.931; with MDA-MB-231BRM Vector (5 µM) it was 0.921; in the assay with MDA-MB-231BRM tGLI1 (0.05 µM), 1.02; with MDA-MB-231BRM tGLI1 (0.5 µM), 0.956; with MDA-MB-231BRM tGLI1 (5 µM), 0.878.

As to `CNc1nc(Nc2cnn([C@H]3CCN(C4COC4)C[C@@H]3F)c2Cl)ncc1C(F)(F)F`, the cell viability with MDA-MB-231 GLI1 (0.05 µM) was found to be 1.21; in the assay with MDA-MB-231 GLI1 (0.5 µM) it was 1.92; in the assay on MDA-MB-231 GLI1 (5 µM), 1.29; with MDA-MB-231 Vector (0.05 µM), 0.684; in the assay with MDA-MB-231 Vector (0.5 µM), 0.703; with MDA-MB-231 Vector (5 µM), 0.532. In addition, the cell viability in the assay with MDA-MB-231 tGLI1 (0.05 µM) turned out to be 0.712; in the assay on MDA-MB-231 tGLI1 (0.5 µM), 0.804; with MDA-MB-231 tGLI1 (5 µM) it was 0.669; with MDA-MB-231BRM GLI1 (0.05 µM), 0.508; in the assay with MDA-MB-231BRM GLI1 (0.5 µM), 0.486; in the assay with MDA-MB-231BRM GLI1 (5 µM), 0.354. In addition, the cell viability in the assay on MDA-MB-231BRM Vector (0.05 µM) turned out to be 0.59; with MDA-MB-231BRM Vector (0.5 µM), 0.446; in the assay with MDA-MB-231BRM Vector (5 µM), 0.402; in the assay on MDA-MB-231BRM tGLI1 (0.05 µM), 0.727; with MDA-MB-231BRM tGLI1 (0.5 µM) it was 0.675; in the assay on MDA-MB-231BRM tGLI1 (5 µM), 0.648.
